Measured values reported in patent publication US20060089390A1, “3-benzoyl-2,4,5-substituted pyridine derivatives or salts thereof and bactericides containing the same” (Ishihara Sangyo Kaisha, Ltd., priority 2002, published 2006).
Some entries share one result that the patent states for a list of compounds. At least one structure is not confirmed: it was looked up by name or label, or the drawing left a doubt.

Columns and labels:
[1] = test system: wheat powdery mildew; assay: Test on preventive effect against wheat powdery mildew; format: in vivo, Wheat (cultivar: Norin-61-go); conditions: 125 ppm, foliar spray before inoculation, examined 6 to 8 days after inoculation
Protocol: Tests on Preventive Effect Against Wheat Powdery Mildew Wheat (cultivar: […] After the drug solution dried, the wheat was inoculated by spreading with conidiospore of fungi of powdery mildew, and the wheat was kept in a thermostatic chamber at 20° C. From 6 to 8 days after the inoculation, the area of sporogony was examined.

[2] = test system: cucumber powdery mildew; assay: Test on preventive effect against cucumber powdery mildew; format: in vivo, Cucumber (cultivar: Suyo); conditions: 125 ppm, foliar spray before inoculation, examined 6 to 11 days after inoculation
Protocol: Test on Preventive Effect Against Cucumber Powdery Mildew Cucumber (cultivar: […] After the drug solution dried, the cucumber was sprayed and inoculated with a conidiospore suspension of fungi of powdery mildew, and the cucumber was kept in a thermostatic chamber at 20° C. From 6 to 11 days after the inoculation, the area of sporogony was examined.

COc1cc(C)c(C(=O)c2c(OC)ncc(I)c2Cl)c(OC)c1OC [1-8]
controlling effects as compared with non-treated cases (area of sporogony) [1]: at least 90% | controlling effects as compared with non-treated cases (area of sporogony) [2]: at least 90%
